Binding data for two substances are collected here from doi:10.1101/2023.08.20.554038.

The chains behind the UniProt entries cited, without tags or fusion partners.
UniProt P12367: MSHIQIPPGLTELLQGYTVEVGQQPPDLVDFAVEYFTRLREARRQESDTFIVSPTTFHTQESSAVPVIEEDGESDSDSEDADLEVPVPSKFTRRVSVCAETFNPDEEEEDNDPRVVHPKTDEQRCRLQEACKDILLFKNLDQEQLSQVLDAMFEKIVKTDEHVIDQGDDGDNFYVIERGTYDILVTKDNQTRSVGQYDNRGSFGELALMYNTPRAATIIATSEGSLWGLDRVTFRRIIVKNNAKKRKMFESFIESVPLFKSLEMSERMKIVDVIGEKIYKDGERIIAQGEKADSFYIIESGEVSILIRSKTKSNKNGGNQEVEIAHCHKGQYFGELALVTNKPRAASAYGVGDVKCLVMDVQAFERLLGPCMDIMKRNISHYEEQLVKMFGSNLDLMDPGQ
UniProt P24588: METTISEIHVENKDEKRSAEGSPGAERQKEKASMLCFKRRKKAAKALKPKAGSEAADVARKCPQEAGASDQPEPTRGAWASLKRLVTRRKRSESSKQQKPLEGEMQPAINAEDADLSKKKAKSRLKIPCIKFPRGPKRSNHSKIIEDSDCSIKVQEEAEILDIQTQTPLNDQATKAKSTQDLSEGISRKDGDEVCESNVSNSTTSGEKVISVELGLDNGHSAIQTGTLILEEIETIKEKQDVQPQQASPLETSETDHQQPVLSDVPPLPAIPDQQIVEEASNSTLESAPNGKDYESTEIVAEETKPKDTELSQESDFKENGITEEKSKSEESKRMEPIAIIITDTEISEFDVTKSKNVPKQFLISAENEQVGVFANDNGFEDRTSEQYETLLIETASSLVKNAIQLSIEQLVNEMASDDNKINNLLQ
UniProt Q9Y490: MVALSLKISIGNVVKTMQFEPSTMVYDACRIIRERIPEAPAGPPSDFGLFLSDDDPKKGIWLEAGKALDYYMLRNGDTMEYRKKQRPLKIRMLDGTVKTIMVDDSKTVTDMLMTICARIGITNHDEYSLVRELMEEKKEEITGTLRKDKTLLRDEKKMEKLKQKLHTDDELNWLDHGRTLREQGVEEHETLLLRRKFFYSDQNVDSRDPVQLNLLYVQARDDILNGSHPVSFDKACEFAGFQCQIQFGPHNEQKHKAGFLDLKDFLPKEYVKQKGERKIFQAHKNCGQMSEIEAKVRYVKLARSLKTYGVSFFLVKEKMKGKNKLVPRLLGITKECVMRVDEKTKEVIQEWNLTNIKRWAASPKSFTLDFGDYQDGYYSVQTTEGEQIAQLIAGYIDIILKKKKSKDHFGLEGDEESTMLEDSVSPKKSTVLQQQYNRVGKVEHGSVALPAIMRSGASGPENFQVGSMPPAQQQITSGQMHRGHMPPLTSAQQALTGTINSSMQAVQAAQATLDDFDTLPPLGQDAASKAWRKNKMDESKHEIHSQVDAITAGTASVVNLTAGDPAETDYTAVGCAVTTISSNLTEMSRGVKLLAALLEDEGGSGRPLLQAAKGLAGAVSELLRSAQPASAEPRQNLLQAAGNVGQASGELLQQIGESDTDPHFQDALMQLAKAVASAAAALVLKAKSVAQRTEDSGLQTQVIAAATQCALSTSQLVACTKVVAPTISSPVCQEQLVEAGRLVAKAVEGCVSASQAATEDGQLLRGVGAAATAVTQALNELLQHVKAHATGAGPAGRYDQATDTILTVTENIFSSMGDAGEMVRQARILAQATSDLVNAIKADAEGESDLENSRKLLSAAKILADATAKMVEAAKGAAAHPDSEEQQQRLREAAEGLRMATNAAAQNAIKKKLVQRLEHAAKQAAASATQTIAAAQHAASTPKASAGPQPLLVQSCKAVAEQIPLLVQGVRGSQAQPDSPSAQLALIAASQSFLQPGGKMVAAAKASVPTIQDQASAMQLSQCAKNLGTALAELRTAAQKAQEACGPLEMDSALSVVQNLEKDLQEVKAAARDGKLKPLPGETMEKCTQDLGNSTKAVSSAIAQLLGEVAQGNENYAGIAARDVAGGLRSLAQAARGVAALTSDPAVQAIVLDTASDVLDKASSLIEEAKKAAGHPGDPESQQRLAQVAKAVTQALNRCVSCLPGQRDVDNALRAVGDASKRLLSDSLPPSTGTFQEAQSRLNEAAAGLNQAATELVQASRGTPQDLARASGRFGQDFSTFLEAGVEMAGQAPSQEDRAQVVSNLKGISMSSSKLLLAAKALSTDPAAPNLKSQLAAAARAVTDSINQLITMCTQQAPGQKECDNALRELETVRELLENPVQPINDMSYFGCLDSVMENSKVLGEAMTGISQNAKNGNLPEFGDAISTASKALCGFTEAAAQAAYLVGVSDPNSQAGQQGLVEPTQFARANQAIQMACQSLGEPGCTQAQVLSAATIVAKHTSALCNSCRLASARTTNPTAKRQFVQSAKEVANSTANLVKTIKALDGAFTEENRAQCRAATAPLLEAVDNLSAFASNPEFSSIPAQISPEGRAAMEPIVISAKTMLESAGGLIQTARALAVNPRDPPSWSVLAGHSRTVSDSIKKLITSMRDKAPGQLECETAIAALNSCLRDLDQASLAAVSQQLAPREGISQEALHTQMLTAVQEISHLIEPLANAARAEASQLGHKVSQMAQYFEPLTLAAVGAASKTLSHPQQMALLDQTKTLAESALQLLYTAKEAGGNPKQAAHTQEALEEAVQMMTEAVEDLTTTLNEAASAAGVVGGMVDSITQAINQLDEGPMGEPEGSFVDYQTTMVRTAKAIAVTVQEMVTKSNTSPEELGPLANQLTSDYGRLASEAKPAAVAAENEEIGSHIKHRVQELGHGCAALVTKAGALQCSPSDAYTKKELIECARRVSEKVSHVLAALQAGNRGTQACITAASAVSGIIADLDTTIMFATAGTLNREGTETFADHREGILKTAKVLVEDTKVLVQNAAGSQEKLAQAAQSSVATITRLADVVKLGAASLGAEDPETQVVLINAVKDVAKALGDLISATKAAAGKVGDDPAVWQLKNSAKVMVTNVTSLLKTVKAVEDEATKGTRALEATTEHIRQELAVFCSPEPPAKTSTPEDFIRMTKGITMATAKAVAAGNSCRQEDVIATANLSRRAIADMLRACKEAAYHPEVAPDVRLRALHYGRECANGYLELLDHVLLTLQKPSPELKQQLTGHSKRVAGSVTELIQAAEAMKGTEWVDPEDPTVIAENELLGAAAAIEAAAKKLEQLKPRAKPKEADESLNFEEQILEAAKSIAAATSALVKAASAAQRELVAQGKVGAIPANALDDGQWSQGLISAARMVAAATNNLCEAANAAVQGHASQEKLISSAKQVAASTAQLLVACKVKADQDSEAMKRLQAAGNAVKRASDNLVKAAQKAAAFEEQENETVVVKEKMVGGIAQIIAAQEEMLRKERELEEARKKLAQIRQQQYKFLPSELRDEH

This test has as its target V5 epitope-tagged murine PKA RIIα fused to miniTurbo biotin ligase (V5-RIIα-mTb), wild type (mouse) (UniProt P12367). The test is described as follows: co-IP.

Results are given in words; binding and its absence hold for the method and conditions named. Binding seen in cells or lysates may run through a third protein. Some results given as binding are weak or reduced against the parent protein; the word gives no strength.

AKAP79 (from UniProt P24588 1-427): the binding result is “binds”.
Next, talin1 (from UniProt Q9Y490 1-2541): “binds”.
